These are yes or no findings as the source states them, for the method shown. Binding seen in cells or lysates may run through a third protein. Some binding calls cover weakened binding; strength is not graded here. Where a sequence is shown, tags or fusion partners need not be part of it.
T1: FLAG-TRAF2 (UniProt Q12933)
T1 sequence (looked up): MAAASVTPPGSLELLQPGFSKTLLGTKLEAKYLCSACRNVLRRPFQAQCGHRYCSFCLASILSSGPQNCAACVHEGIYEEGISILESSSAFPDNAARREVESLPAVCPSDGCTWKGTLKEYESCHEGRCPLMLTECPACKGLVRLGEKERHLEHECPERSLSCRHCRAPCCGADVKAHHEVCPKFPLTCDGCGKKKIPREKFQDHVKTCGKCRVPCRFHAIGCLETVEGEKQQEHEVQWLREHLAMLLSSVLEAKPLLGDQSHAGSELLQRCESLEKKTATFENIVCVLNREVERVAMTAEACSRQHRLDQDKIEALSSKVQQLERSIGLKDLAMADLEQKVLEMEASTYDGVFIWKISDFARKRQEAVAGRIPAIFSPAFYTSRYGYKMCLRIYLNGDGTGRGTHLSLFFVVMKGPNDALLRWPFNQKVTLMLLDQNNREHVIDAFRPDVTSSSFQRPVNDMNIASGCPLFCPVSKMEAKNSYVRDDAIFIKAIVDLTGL

By UniProt entry, the sequences of proteins in these tests, tags left out.
UniProt Q13490: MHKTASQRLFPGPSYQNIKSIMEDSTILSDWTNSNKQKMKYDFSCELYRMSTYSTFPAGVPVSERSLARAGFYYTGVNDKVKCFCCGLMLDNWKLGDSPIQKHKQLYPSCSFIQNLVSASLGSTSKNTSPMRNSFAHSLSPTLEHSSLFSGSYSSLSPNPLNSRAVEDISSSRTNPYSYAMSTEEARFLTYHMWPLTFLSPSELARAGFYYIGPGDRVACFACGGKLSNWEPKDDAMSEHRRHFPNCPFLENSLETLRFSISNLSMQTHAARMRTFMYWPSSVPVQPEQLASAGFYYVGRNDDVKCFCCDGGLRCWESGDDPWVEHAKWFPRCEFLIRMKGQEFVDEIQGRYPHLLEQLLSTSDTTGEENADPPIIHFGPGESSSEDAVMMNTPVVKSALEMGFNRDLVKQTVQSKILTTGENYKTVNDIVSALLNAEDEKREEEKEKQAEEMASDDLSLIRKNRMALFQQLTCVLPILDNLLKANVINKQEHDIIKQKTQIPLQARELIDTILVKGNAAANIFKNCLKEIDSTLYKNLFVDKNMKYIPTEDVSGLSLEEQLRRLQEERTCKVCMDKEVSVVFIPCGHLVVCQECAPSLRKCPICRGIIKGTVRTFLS

B1: FLAG-SIVA3 (protein, not shown: small tags and cut ends)
chain: MPKRSCPFADVAPLQLKVRVSQRELSRGVCAERYSQEVFAAVTCTRKCCAPAVPCSRPEAGSSRLPSPGATPCMAAFPGRALGVHTELWGRREGCLLHVLFCILMTE
B2: HIS-SIVA3 (protein, not shown: small tags and cut ends)
chain: MPKRSCPFADVAPLQLKVRVSQRELSRGVCAERYSQEVFAAVTCTRKCCAPAVPCSRPEAGSSRLPSPGATPCMAAFPGRALGVHTELWGRREGCLLHVLFCILMTE

Key:
[1] = target: endogenous cellular inhibitor of apoptosis protein 1 (cIAP1) (UniProt Q13490); experiment: co-immunoprecipitation from HEK-293T lysate: endogenous cIAP1 immunoprecipitated with anti-cIAP1, SIVA detected by Western blot
[2] = target: T1, FLAG-TRAF2; experiment: co-immunoprecipitation from HEK-293T lysate: FLAG-TRAF2 immunoprecipitated with anti-FLAG, SIVA detected by Western blot with anti HIS

| Binder | binding [1] | binding [2] |
| --- | --- | --- |
| B1 | binds |  |
| B2 |  | binds |
